Among the data in PMC6915734 are binding values, retold here.

These are yes or no findings as the source states them, for the method shown. Some results given as binding are weak or reduced against the parent protein; the word gives no strength.

The assay concerns the target T1, Human pulmonary surfactant protein-D (human), P35247.
T1 chain: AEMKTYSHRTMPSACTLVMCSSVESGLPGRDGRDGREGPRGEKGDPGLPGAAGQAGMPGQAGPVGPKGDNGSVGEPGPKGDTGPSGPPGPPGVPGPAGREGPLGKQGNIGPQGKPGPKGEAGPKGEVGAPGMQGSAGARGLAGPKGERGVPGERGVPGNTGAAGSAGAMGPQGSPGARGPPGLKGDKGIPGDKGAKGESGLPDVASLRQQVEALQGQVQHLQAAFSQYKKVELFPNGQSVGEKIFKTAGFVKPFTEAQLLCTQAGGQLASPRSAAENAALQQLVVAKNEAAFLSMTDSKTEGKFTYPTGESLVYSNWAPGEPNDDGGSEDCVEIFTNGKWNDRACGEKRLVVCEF
Nature of the assay: atomic force microscopy; purified hSP-D imaged by AFM (Supplementary Fig. 1); conditions not given; both purified. Particulars: remark: other sources report otherwise.

B1: Human pulmonary surfactant protein-D, P35247 21-375 (protein)
chain: T1 chain
As to B1, the binding entry was “binds”.
